The values that follow come from the supplement of paper PMC7666118.

By UniProt entry, the sequences of proteins in these tests, tags left out. Where a name states a change or a piece, a line headed by the entry shows the natural chain unless it says otherwise.
UniProt Q9Y6G5, whole entry: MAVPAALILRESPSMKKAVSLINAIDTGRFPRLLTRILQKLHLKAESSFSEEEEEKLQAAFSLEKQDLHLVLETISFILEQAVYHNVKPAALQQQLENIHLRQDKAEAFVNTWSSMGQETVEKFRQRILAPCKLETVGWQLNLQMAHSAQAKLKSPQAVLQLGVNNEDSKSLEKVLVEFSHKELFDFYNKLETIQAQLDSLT
UniProt P46108: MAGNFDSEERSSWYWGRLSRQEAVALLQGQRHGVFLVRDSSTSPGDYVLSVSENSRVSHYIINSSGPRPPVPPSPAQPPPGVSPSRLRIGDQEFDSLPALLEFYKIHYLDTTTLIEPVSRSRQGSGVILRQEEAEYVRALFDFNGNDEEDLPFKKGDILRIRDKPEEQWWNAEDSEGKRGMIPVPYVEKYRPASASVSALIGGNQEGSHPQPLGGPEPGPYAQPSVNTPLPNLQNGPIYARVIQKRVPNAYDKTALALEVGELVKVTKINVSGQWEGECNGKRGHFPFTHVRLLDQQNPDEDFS
UniProt O15182: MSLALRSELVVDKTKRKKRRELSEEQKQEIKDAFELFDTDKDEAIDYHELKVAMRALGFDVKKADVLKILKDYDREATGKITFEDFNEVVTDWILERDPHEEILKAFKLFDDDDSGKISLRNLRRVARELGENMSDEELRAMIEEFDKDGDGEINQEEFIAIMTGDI
UniProt O76071: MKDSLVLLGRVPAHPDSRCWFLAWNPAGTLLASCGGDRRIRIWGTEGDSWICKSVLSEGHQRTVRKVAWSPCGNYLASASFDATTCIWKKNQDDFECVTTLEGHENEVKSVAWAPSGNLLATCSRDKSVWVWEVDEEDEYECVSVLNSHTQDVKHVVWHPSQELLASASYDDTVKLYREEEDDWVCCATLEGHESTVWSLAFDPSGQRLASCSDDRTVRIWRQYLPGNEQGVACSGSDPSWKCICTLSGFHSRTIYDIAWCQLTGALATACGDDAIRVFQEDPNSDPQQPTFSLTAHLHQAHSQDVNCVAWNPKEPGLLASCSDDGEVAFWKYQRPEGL
UniProt Q9Y259: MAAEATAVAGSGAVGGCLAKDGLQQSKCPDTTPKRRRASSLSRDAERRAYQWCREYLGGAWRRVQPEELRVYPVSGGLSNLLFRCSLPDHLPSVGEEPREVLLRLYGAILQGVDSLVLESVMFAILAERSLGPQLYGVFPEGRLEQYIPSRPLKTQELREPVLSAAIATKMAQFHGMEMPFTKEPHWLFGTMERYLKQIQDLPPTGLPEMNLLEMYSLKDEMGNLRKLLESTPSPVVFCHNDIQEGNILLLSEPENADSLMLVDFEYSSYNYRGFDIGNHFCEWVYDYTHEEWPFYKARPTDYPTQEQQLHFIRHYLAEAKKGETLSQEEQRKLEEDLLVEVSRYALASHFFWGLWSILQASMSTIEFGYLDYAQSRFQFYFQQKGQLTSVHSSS
UniProt Q53EZ4: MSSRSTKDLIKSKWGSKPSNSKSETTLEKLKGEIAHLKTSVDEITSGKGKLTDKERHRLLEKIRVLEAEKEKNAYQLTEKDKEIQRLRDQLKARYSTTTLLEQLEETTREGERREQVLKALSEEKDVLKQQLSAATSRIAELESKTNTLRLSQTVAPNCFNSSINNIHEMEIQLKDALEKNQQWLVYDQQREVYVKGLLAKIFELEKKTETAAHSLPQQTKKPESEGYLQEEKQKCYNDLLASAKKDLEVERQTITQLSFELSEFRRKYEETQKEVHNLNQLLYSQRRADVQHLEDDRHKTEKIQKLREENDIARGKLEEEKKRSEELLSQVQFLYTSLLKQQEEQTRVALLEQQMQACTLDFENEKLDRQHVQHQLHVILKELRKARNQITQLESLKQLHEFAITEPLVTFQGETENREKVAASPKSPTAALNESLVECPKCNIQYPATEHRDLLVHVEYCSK
UniProt Q96SZ6: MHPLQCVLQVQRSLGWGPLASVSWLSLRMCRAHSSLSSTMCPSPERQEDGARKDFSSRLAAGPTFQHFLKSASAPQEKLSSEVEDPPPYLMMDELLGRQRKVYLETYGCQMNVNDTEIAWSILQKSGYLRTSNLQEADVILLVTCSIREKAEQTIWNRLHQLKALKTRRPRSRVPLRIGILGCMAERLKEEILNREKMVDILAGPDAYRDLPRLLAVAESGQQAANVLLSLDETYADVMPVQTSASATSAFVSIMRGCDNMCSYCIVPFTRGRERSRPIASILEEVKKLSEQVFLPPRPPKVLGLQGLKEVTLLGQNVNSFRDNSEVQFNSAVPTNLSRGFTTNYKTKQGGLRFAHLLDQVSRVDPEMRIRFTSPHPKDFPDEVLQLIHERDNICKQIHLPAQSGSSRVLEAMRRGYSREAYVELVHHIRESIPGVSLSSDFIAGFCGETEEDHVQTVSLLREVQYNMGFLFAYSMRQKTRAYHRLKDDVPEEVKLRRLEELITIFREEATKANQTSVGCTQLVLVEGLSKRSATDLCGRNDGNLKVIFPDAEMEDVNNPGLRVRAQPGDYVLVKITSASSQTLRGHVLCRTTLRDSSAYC
UniProt Q8N8Q8: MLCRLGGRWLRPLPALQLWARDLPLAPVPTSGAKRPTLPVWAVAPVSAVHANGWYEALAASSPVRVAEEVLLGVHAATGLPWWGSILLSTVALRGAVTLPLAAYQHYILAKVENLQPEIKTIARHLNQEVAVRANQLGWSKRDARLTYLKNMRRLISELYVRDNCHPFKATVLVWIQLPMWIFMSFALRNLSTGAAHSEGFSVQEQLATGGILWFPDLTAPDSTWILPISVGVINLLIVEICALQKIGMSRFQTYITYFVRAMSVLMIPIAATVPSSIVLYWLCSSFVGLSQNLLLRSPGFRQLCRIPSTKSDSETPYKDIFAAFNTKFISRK
UniProt O75718: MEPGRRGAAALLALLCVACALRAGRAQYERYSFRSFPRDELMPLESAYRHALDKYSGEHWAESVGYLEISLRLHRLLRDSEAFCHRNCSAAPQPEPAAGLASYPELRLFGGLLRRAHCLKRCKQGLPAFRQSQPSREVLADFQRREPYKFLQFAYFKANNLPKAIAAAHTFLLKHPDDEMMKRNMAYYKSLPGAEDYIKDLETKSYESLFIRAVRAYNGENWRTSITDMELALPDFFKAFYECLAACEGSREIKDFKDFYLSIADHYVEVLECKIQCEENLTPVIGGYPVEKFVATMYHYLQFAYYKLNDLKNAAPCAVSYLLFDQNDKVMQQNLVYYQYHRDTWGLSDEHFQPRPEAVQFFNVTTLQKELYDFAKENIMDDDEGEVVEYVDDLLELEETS
UniProt Q86X95: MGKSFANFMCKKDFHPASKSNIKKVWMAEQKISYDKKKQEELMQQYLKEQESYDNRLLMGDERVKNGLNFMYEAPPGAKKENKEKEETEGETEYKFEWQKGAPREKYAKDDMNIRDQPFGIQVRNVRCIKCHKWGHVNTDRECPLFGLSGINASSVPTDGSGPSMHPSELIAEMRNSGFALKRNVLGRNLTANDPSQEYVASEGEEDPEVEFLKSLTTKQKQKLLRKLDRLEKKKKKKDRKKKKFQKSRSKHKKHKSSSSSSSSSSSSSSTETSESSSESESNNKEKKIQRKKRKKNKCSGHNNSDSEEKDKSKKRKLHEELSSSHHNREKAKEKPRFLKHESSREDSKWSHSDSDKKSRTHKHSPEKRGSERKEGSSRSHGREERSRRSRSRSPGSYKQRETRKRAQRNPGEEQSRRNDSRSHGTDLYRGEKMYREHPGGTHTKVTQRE
UniProt O75575: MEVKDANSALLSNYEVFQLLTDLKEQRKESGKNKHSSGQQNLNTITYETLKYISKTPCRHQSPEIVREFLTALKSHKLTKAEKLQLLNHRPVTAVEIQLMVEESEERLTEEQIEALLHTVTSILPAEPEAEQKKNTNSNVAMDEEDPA
UniProt Q9NYJ1, whole entry: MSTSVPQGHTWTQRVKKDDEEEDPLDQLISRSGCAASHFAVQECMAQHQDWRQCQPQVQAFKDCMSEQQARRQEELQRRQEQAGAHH
UniProt P24311, whole entry: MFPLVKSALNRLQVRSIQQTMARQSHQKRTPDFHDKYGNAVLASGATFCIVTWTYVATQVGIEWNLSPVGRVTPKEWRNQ
UniProt P61923: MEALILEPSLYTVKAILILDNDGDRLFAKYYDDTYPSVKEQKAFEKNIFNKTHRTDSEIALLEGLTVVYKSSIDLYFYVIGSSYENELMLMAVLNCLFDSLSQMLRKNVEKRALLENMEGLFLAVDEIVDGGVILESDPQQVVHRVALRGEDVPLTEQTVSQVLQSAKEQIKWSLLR
UniProt Q92793, whole entry, looked up: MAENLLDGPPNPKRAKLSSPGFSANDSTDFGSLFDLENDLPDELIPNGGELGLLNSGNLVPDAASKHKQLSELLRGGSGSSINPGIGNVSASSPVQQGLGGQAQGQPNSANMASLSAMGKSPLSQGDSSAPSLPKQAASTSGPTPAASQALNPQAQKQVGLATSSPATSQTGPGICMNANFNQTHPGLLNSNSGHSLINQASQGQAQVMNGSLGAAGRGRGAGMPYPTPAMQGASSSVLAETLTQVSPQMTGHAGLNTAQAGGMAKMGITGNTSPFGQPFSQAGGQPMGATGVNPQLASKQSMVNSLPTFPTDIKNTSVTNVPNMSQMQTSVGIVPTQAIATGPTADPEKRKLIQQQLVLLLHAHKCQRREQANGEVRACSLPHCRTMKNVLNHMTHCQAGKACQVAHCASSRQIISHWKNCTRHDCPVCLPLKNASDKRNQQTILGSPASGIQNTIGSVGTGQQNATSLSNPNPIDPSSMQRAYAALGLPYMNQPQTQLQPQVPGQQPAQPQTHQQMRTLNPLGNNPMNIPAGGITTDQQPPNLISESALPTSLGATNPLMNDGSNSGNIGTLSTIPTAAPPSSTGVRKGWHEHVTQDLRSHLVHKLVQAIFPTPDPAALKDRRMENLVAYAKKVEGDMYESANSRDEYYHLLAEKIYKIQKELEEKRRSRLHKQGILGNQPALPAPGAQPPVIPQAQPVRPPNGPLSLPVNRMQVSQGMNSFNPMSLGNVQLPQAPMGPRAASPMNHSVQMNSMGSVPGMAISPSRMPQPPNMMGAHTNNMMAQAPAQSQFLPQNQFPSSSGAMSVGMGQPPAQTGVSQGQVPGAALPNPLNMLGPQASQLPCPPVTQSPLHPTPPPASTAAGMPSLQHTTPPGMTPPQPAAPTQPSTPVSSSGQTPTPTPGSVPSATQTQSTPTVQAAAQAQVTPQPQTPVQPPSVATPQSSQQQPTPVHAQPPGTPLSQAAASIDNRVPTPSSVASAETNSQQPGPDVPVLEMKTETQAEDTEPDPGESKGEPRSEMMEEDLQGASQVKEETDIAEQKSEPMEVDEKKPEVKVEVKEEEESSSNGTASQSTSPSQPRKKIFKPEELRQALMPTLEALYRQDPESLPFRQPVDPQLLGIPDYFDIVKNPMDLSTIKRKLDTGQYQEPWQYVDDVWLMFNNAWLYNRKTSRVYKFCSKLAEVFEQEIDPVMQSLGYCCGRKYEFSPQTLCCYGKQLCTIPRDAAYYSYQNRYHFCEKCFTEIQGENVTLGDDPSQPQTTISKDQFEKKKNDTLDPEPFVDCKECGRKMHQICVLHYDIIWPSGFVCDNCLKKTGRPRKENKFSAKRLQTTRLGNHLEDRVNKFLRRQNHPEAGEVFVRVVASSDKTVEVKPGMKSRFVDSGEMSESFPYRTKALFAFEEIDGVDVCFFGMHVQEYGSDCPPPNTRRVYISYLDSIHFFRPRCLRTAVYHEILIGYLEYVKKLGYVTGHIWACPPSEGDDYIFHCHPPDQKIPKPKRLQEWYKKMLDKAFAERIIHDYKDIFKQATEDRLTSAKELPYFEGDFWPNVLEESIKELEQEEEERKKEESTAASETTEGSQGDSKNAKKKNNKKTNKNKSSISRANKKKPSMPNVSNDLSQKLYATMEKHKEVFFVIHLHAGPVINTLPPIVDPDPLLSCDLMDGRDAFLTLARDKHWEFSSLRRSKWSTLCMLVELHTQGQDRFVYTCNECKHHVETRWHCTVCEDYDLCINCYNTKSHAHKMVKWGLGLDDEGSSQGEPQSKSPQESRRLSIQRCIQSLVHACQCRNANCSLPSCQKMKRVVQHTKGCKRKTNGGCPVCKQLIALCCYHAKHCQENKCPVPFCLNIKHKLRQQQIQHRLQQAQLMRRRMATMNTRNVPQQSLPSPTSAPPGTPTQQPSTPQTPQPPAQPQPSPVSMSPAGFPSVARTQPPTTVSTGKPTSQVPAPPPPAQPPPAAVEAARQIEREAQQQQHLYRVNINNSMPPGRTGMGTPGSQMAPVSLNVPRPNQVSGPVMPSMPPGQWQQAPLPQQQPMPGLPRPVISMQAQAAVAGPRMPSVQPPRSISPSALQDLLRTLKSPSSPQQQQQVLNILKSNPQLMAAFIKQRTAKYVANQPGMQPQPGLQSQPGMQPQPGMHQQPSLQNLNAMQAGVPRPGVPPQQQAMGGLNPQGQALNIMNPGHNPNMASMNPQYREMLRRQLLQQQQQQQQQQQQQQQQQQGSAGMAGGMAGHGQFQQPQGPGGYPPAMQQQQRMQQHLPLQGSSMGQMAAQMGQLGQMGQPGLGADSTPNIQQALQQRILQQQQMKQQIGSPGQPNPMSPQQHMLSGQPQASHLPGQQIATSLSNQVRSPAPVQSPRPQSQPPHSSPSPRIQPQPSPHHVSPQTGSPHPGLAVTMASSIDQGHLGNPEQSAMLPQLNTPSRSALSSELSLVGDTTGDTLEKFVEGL

The other results are listed elsewhere or left out.

Compound in this assay: COc1ccc(Cn2ccc3cc(C)c(C(=O)NO)cc32)cc1
The assay can be described thus: dose-dependent thermal stabilisation call (2D-TPP, DLPTP, 10% FDR) (binary (1 = stabilised)); higher = stabilised by the compound. The conditions noted are these: system: HL-60 intact cells; concentration range 0.04-10 µM. How it is done:
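2D thermal proteome profiling in intact HL-60 cells treated with BRD-3811 (0, 0.04, 0.29, 2, 10 uM) for 90 min at 37 C, then heated 3 min at one of 12 temperatures (42-63.9 C). Soluble protein was quantified by TMT10 MS. The value is the DLPTP call of the paper: dose-dependent thermal stabilisation over all temperatures at 10% FDR (F-test of a dose-response against a flat model); one experiment, one call per tested protein.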
As to COMMD10 (UniProt Q9Y6G5), the “dose-dependent thermal stabilisation call” value was inactive: 0.

With CRK (UniProt P46108), the “dose-dependent thermal stabilisation call” value is inactive: 0.

Take CD59 (UniProt P13987): the “dose-dependent thermal stabilisation call” value is inactive: 0.

As to CETN3 (UniProt O15182), the “dose-dependent thermal stabilisation call” value is inactive: 0.

As for CISD2 (UniProt Q8N5K1), the “dose-dependent thermal stabilisation call” value is inactive: 0.

For CIAO1 (UniProt O76071), the “dose-dependent thermal stabilisation call” value was inactive: 0.

In the case of CHEK2 (UniProt O96017), the “dose-dependent thermal stabilisation call” value is inactive: 0.

In the case of CEP192 (UniProt Q8TEP8), the “dose-dependent thermal stabilisation call” value is inactive: 0.

Take CHST10 (UniProt O43529): the “dose-dependent thermal stabilisation call” value is inactive: 0.

In the case of CHKB (UniProt Q9Y259), the “dose-dependent thermal stabilisation call” value is inactive: 0.

Turning to CEP55 (UniProt Q53EZ4), the “dose-dependent thermal stabilisation call” value is inactive: 0.

Regarding CHMP2A (UniProt O43633), the “dose-dependent thermal stabilisation call” value is inactive: 0.

For the target CDK5RAP1 (UniProt Q96SZ6), the “dose-dependent thermal stabilisation call” value is inactive: 0.

Take CHMP7 (UniProt Q8WUX9): the “dose-dependent thermal stabilisation call” value was inactive: 0.

Consider CDKN2C (UniProt P42773), for which the “dose-dependent thermal stabilisation call” value was inactive: 0.

As for CLTCL1 (UniProt P53675), the “dose-dependent thermal stabilisation call” value is inactive: 0.

For the target COPS6 (UniProt Q7L5N1), the “dose-dependent thermal stabilisation call” value was inactive: 0.

Turning to CLINT1 (UniProt Q14677), the “dose-dependent thermal stabilisation call” value is inactive: 0.

For CEP170 (UniProt Q5SW79), the “dose-dependent thermal stabilisation call” value is inactive: 0.

Take CMC1 (UniProt Q7Z7K0): the “dose-dependent thermal stabilisation call” value is inactive: 0.

On to COX18 (UniProt Q8N8Q8), for which the “dose-dependent thermal stabilisation call” value is inactive: 0.

As to CDC45L (UniProt O75419), the “dose-dependent thermal stabilisation call” value was inactive: 0.

Turning to CRTAP (UniProt O75718), the “dose-dependent thermal stabilisation call” value is inactive: 0.

For the target CIR (UniProt Q86X95), the “dose-dependent thermal stabilisation call” value was inactive: 0.

On to CRCP (UniProt O75575), for which the “dose-dependent thermal stabilisation call” value is inactive: 0.

With CISD1 (UniProt Q9NZ45), the “dose-dependent thermal stabilisation call” value is inactive: 0.

In the case of CHML (UniProt P26374), the “dose-dependent thermal stabilisation call” value was inactive: 0.

CINP (UniProt Q9BW66): the “dose-dependent thermal stabilisation call” value was inactive: 0.

Take CHCHD3 (UniProt Q9NX63): the “dose-dependent thermal stabilisation call” value was inactive: 0.

Regarding CHCHD8 (UniProt Q9NYJ1), the “dose-dependent thermal stabilisation call” value is inactive: 0.

Regarding COX7B (UniProt P24311), the “dose-dependent thermal stabilisation call” value was inactive: 0.

As for COPZ1 (UniProt P61923), the “dose-dependent thermal stabilisation call” value is inactive: 0.

Take CREBBP (UniProt Q92793): the “dose-dependent thermal stabilisation call” value was inactive: 0.

As to CECR5 (UniProt Q9BXW7), the “dose-dependent thermal stabilisation call” value is inactive: 0.

For the target CLASP1 (UniProt Q7Z460), the “dose-dependent thermal stabilisation call” value is inactive: 0.

Take CMTM6 (UniProt Q9NX76): the “dose-dependent thermal stabilisation call” value was inactive: 0.
